Test results: patent publication US20040248762A1, “Malodor counteractant compositions” (priority 2003, published 2004)

Tests used:
[1] = Perfumer scaling of ease of incorporation into a fragrance composition; design: species or system human; key: 5—Difficult; 3—Acceptable; 1—Very easy; conditions: compound at 10% (wt.) in fragrance without significant distortion of the fragrance note; perfumer scale 1-5
[2] = Odor Value (headspace quantity divided by perception threshold); design: species or system human; conditions: standards of Table 7

| SMILES | SCORE (ease of incorporation into a fragrance composition) [1] | Odor Value [2] |
| --- | --- | --- |
| O=C/C=C/c1ccccc1 [Cinnamic Aldehyde, reference compound] | 5 | 12000) |
| CCCCC(C)COC(=O)C1=Cc2ccc(OC)cc2CC1 (centres unmarked) [GR-84-6495/000] | 1 |  |
| CCCCC(C)COC(=O)c1cc2ccccc2oc1=O (centres unmarked) [GR-84-6924/000] | 1 |  |
| C/C(=C\c1ccccc1O)C(=O)OCCC(C)CCc1ccccc1 (centres unmarked) [GR-85-1407/000] | 3 |  |
| CC(C)=CCCC(C)CCOC(=O)/C=C/c1ccccc1O (centres unmarked) [GR-85-2280/001] | 4 |  |
| CC(C)=CCCC(C)CCOC(=O)/C(C#N)=C/c1ccccc1O (centres unmarked) [GR-85-2661/000] | 3 |  |
| COc1ccc(OC)c(/C=C/C(=O)OCCC(C)CCC=C(C)C)c1 (centres unmarked) [GR-85-3260/000] | 1 |  |
| COC(=O)/C(C#N)=C/c1ccccc1 [GR-85-3427/000] | 2 |  |
| CCCCCCCCCCOC(=O)/C=C/c1ccccc1 [GR-85-3428/000] | 2 |  |
| CCCCC(CC)COC(=O)/C=C/c1ccccc1 (centres unmarked) [GR-85-3429/000] | 2 |  |
| CC(C)=CCCC(C)CCOC(=O)/C=C/c1ccccc1O[Si](C)(C)C (centres unmarked) [GR-85-3565/000] | 2 |  |
| CCCCCCOC(=O)c1ccccc1 [Hexyl Benzoate, reference compound] | 3 | 1000 |
| CCCCCCC(C=O)=Cc1ccccc1 [Hexyl Cinnamic Aldehyde, reference compound] | 2 | 384 |
| CCCCC(CC)COC(=O)/C=C/c1ccc(OC)cc1 (centres unmarked) [OMC, Octyl methoxy cinnamate] | 1 |  |
